In PubChem BioAssay AID1259354 (Paczesny and Yang Labs, IUPUI and University of Michigan, 2018):
Several values for one entry are separate records, joined by “and”; a condition that tells them apart may be missing. Equal values may be shown once. Out of some 78,000 compounds screened, about 1,800 (2.3%) were called active. Inconclusive means that the source gave no clear call. Such entries were picked first, then a sample of the others. Cut-off read from the data, not from the text of the source: active = inhibition above about 30%; inconclusive = mostly about 10% to 28%; inactive = weaker than that.

Amino acid sequences for entries named in this document (tags omitted). A change or cut given only in a name is not applied to a line headed by its entry.
UniProt Q01638: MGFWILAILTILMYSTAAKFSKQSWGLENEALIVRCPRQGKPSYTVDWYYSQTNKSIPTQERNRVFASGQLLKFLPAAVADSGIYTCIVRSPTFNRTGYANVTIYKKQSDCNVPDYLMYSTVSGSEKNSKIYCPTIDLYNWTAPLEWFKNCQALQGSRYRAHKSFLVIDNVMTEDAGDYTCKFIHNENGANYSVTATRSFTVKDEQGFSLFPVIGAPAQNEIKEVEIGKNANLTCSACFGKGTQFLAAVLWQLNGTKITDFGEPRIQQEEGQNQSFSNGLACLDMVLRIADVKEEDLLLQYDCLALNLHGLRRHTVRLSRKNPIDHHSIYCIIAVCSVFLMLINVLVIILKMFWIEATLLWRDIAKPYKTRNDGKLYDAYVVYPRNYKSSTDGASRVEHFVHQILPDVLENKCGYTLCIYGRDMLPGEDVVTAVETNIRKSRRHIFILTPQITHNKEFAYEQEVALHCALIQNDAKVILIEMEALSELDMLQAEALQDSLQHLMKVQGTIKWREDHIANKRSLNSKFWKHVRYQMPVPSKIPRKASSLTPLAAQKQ

target: Interleukin-1 receptor-like 1 (Homo sapiens) (UniProt Q01638); test: blocks human ST2 binding to IL-33, primary screen, biochemical, AlphaLISA (AID 1259354); conditions: AlphaLISA ST2-Fc/biotin-IL-33 interaction, 1 h; at 17 µM, active compounds read high

| Structure (SMILES) | inhibition |
| --- | --- |
| CCN1C(=O)N(CCC(C)C)C2(CCN(CCC(C)c3ccccc3)CC2)C1=O (stereo not given) | inconclusive: 14% |
| COc1ccc(C)cc1NC(=O)c1cc2cc3ccc(Cl)cc3nc2o1 | inconclusive: 21% |
| Cc1ccc2[nH]cc(-c3ccc4cc[nH]c(=O)c4c3)c2c1 | inconclusive: 11% |
| COc1ccc(OC)c(N(CC(=O)NCC2CCCO2)S(C)(=O)=O)c1 (stereo not given) | inactive |
| CCNc1ccnc(N2CCN(Cc3ccc4c(c3)OCO4)CC2)n1 | inconclusive: 21% |
| COc1cccc(OC)c1C(=O)OCCN1C(=O)c2ccccc2C1=O | inconclusive: 21% |
| CN(CC1CCCCO1)C(=O)c1cn(C2CCCCCC2)nn1 (stereo not given) | inactive |
| COc1cccc(NC(=O)c2cc3cc4ccc(C)cc4nc3s2)c1 | inconclusive: 16% |
| O=Cc1ccc(-c2ccccc2[N+](=O)[O-])o1 | inconclusive: 11% |
| CC(C)N1CCc2c(c(C(=O)NCCCc3ccccc3)nn2Cc2ccncc2)C1 | inconclusive: 13% |
| O=[N+]([O-])c1ccc(-c2nc(NCCCO)c3ccccc3n2)cc1 | inactive |
| CC1(C)CC(=O)N(CC(=O)NC2CCCCCCC2)c2ccccc2S1 | inconclusive: 16% |
| O=C(Nc1ccc(F)cc1)N[C@H]1[C@H](O)[C@@H](N2CCOCC2)[C@@H]2OC[C@H]1O2 | inconclusive: 17% |
| COc1cc(C(=O)Nc2nc(-c3ccc4c(c3)OCO4)cs2)cc(OC)c1OC | inactive |
| CCC(=O)Nc1sc2c(c1C(=O)Nc1ccc(Cl)cc1)CCC(C)C2 (stereo not given) | inconclusive: 13% |
| CCc1cc(CN(C)C/C(C)=C/c2ccco2)on1 | inconclusive: 19% |
| Cn1ccnc1CN1C(=O)CO[C@H]2CN(C(=O)CC(C)(C)C)C[C@H]21 | inactive |
| Cc1csc(SCC(=O)N2CCC(c3cc(C(C)C)n[nH]3)CC2)n1 | inactive |
| CC(C)NC(=O)C(=O)N1CCOC(c2ccc(Cl)cc2)C1 (stereo not given) | inactive |
| COc1ccc(NC(=O)N2Cc3[nH]cnc3C[C@H]2c2nc(-c3ccc(C)cc3)no2)cc1 | inconclusive: 14% |

An excerpt of these results, tab-delimited:
Structure (SMILES)	inhibition
COc1cccc(OC)c1C(=O)OCCN1C(=O)c2ccccc2C1=O	inconclusive: 21%
CN(CC1CCCCO1)C(=O)c1cn(C2CCCCCC2)nn1 (stereo not given)	inactive

Remaining list, next part

| Structure (SMILES) | inhibition |
| --- | --- |
| Cc1cc(N2CC(C)CC(C)C2)nc2ccc(NC(=O)CCC(=O)N3CCCC3)cc12 (stereo not given) | inconclusive: 12% |
| CC(C)Cc1nc(-c2cc(C(C)C)[nH]n2)n(-c2ccccn2)n1 | inconclusive: 15% |
| Cc1cc(C)cc(NC(=S)N[C@H]2CO[C@H]3[C@@H]2OC[C@@H]3n2nnnc2Oc2cccc(N(C)C)c2)c1 | inconclusive: 14% |
| CCOc1cc(C)c(-c2n[nH]c(C)c2Oc2ccccc2)c(O)c1 | inconclusive: 12% |
| CCOc1ccc(-n2c(SCC(=O)Nc3cc(C)on3)nc3c([nH]c4ccccc43)c2=O)cc1 | inconclusive: 23% |
| CC1(c2ccccc2NC(=O)c2ccc([N+](=O)[O-])cc2)CC1 | active: 30% |
| O=S(=O)(Cc1ccccc1CN1CCOC(C(F)(F)F)C1)c1ccccc1 (stereo not given) | inconclusive: 11% |
| CC(C)Cn1c(CN2CC(C)OC(C)C2)nc2c1c(=O)[nH]c(=O)n2C (stereo not given) | inactive |
| CN1CCC(Cc2noc(-c3ccc(-c4ccn[nH]4)cc3)n2)CC1 | inactive |
| Cc1c(N=Cc2ccccc2)c(=O)n(-c2ccccc2)n1C | inconclusive: 14% |
| COc1ccc(NC(=O)COc2ccc(Br)cc2Br)c(OC)c1 | inactive |
| Cc1nn(C)c(C)c1CN(C)Cc1cccc(C(=O)Nc2c(C)noc2C)c1 | inconclusive: 16% |
| CCOc1ccc(-c2cn(-c3ccc(C)c(Cl)c3)c(=O)[nH]2)cc1 | inconclusive: 14% |
| CC1CCc2c(sc(NC(=O)CSc3ncccn3)c2C#N)C1 (stereo not given) | inconclusive: 17% |
| COc1cccc(C2C(=O)N(C3CCCCC3)CC(=O)N2Cc2ccco2)c1 (stereo not given) | inactive |
| Cn1c(Cc2c[nH]c3ccccc23)nnc1SCC(=O)O | inactive |
| CC(=O)c1sc2ccccc2c1OC(=O)c1ccccc1Br | inactive |
| CCC(=O)N1c2ccccc2-c2nnc(SC)nc2OC1c1c(OC)cc(OC)cc1OC (stereo not given) | inconclusive: 20% |
| CC1CC(C)CN(C(=O)CSC2=Nc3ccccc3C3=NC(C)C(=O)N23)C1 (stereo not given) | inactive |
| COc1cccc(NC(=O)c2cnc3scc(C)n3c2=O)c1 | inconclusive: 29% |

| Structure (SMILES) | inhibition |
| --- | --- |
| CC1=CC[C@@H]2CN(C(=O)c3cccc4nccnc34)C[C@@H]2C1 | inactive |
| COc1cc2c(cc1OC)CN(Cc1ccc(Br)s1)CC2 | inconclusive: 23% |
| COc1cccc(C(=O)Nc2sc3c(c2C(N)=O)CCCCCC3)c1 | inactive |
| C[C@H](NC(=O)/C(C#N)=C/c1ccc(O)c(O)c1)c1ccccc1 | inconclusive: 10% |
| CCCS(=O)(=O)N1CCCC(C(=O)NCCCN2CCC(C)CC2)C1 (stereo not given) | inconclusive: 13% |
| CCCCOc1ccc(OCCCC)c2c1nc(-c1ccccc1NC)c(=O)n2C | active: 69% |
| Cc1ccc(N=Cc2c(C)[nH]n(-c3ccccc3)c2=O)cc1 | inconclusive: 12% |
| N#CC1=C2NC(=O)c3c(sc4c3CCCCC4)N2C2=C(C(=O)CCC2)C1c1cccnc1 (stereo not given) | inconclusive: 12% |
| COC(=O)C1=C(C)Nc2ncnn2C1c1ccccc1Cl (stereo not given) | inactive |
| CN(C)c1ccc(-c2nnc([C@H]3CCN(CC4CCCCC4)C3)o2)cc1 | inconclusive: 10% |
| COc1ccc(S(=O)(=O)CCc2nnc(-c3ccncc3)o2)cc1 | inconclusive: 17% |
| CN(C)c1ccc(/C=C2/SC(=Nc3ccccc3Cl)NC2=O)cc1 | active: 39% |
| Cc1cc2c(cc1CNC1CC(=O)N(Cc3cccc(F)c3)C1)OCO2 (stereo not given) | inconclusive: 15% |
| O=C(O)C1CCC(N2C(=O)c3c(Cl)c(Cl)c(Cl)c(Cl)c3C2=O)CC1 (stereo not given) | inconclusive: 24% |
| Cc1ccc2nc(/C(C#N)=C/c3cccn3-c3ccc(S(N)(=O)=O)cc3)[nH]c2c1 | inconclusive: 13% |
| CC(=O)N(C(C)=O)c1ccc(-c2ccc(N(C(C)=O)C(C)=O)cc2)cc1 | inactive |
| Cc1ccc(OCC2CCCN(C(=O)c3ccc(-n4cnnc4)cc3)C2)cc1 (stereo not given) | inconclusive: 14% |
| Cc1ccn2c(NC(=O)c3ccc4c(c3)OCO4)c(-c3ccccc3)nc2c1 | inconclusive: 13% |
| Cc1ccc2c(c1)c(CNC(C)COc1ccccc1)nn2C (stereo not given) | inconclusive: 11% |
| CSc1nc2c(c(=O)n1-c1ccccc1)SCC2 | inconclusive: 26% and inconclusive: 12% |

Taken from above.
Value of CSc1nc2c(c(=O)n1-c1ccccc1)SCC2 under inhibition: inconclusive: 26% and inconclusive: 12%
Value of Cc1ccc(N=Cc2c(C)[nH]n(-c3ccccc3)c2=O)cc1 under inhibition: inconclusive: 12%
Value of CCCS(=O)(=O)N1CCCC(C(=O)NCCCN2CCC(C)CC2)C1 (stereo not given) under inhibition: inconclusive: 13%
